This experiment concerns CD2F1 mice, L1210 leukemia ip, survival T/C. Nature of the experiment: NCI In Vivo Anticancer Drug Screen. Data for tumor model L1210 Leukemia (intraperitoneal) in CD2F1 (CDF1) mice. To be noted: higher T/C = longer survival. Put shortly:
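Each value reflects a quotient of treated over vehicle control outcomes in mice with a transplanted tumor.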

Where [1] appears, read: T/C endpoint: median survival time, dose: 12.5 mg/kg/injection, schedule: Q01DX009 (ip), vehicle: Klucel (hydroxypropylcellulose) (HPC).
The mark [2] stands for this setting: T/C endpoint: median survival time, dose: 5.0 mg/kg/injection, schedule: Q01DX009 (ip), vehicle: saline with Tween-80.

Structures are written as SMILES. The list is a part of this screen's results and no random one: it gathers tests that were run many times, whatever their T/C, doses with no T/C, and many T/C values between a quarter and a half above the control. Further doses and runs are listed elsewhere. T/C: endpoint of the treated group in % of that of the vehicle group. Some doses have a count of surviving animals in place of a T/C: the source holds a T/C of zero for them, seemingly a mark for toxic or unscored doses. Some survivor counts are full or nearly so, which does not show that the dose was tolerated: survival well below the control is almost never listed, so the zero probably covers shortened survival too. Counts of survivors are from the toxicity check (mostly the fifth day) where no day follows; animals may have died later. Schedules are NCI's codes, read here as Q, the interval in days (D) or hours (H), X, the number of doses. Some entries hold several experiments; the results are listed from low to high. For survival time, the PubChem record calls one and a half times the control and up active, and a quarter to a half above the control has no call in these data; cut-offs in other NCI protocols can differ. Some T/C values carry the count of animals alive at the toxicity check (mostly the fifth day); where none is given, no animal had died by that day.

With `[Cl][Pt+2][Cl].[NH-]CC1(C[NH-])CCC1`, the T/C runs as follows: (T/C endpoint: mean survival time, dose: 3.12 mg/kg/injection, schedule: Q04DX003 (ip), vehicle: saline) 144 % of control; (T/C endpoint: mean survival time, dose: 12.5 mg/kg/injection, schedule: Q04DX003 (ip), vehicle: saline) 125 % of control; (T/C endpoint: mean survival time, dose: 25.0 mg/kg/injection, schedule: Q04DX003 (ip), vehicle: saline) 132 % of control; (T/C endpoint: median survival time, dose: 0.4 mg/kg/injection, schedule: Q01DX009 (ip), vehicle: Klucel (hydroxypropylcellulose) (HPC)) 125 % of control; (T/C endpoint: median survival time, dose: 0.78 mg/kg/injection, schedule: Q01DX009 (ip), vehicle: Klucel (hydroxypropylcellulose) (HPC), evaluated on day 30) 118 [9 of 10 alive], 128, 165 % of control; (T/C endpoint: median survival time, dose: 0.78 mg/kg/injection, schedule: Q01DX009 (ip), vehicle: Klucel (hydroxypropylcellulose) (HPC), evaluated on day 60) 213 % of control. The T/C is 147 % of control (T/C endpoint: median survival time, dose: 0.8 mg/kg/injection, schedule: Q01DX009 (ip), vehicle: Klucel (hydroxypropylcellulose) (HPC)); 185, 211, 259 % of control (T/C endpoint: median survival time, dose: 1.56 mg/kg/injection, schedule: Q01DX009 (ip), vehicle: Klucel (hydroxypropylcellulose) (HPC), evaluated on day 30); 426 % of control (T/C endpoint: median survival time, dose: 1.56 mg/kg/injection, schedule: Q01DX009 (ip), vehicle: Klucel (hydroxypropylcellulose) (HPC), evaluated on day 60); 131 % of control (T/C endpoint: median survival time, dose: 6.0 mg/kg/injection, schedule: Q01DX009 (ip), vehicle: carboxymethylcellulose (CMC)); 116, 160, 188 % of control [9 of 10 alive] (T/C endpoint: median survival time, dose: 6.25 mg/kg/injection, schedule: Q01DX009 (ip), vehicle: Klucel (hydroxypropylcellulose) (HPC), evaluated on day 30); 256 % of control (T/C endpoint: median survival time, dose: 6.25 mg/kg/injection, schedule: Q01DX009 (ip), vehicle: Klucel (hydroxypropylcellulose) (HPC), evaluated on day 60). Further, the T/C by setting is: (T/C endpoint: median survival time, dose: 6.25 mg/kg/injection, schedule: Q01DX009 (ip), vehicle: suspension in saline) 125 % of control; under setting [1], 91 and 158 % of control. In addition, the survivor count (T/C endpoint: mean survival time, dose: 200.0 mg/kg/injection, schedule: Q04DX003 (ip), vehicle: saline) is listed as 4 of 6; the survivor count under setting [1] is 9 of 10 and 10 of 10; the survivor count (T/C endpoint: median survival time, dose: 12.5 mg/kg/injection, schedule: Q01DX009 (ip), vehicle: suspension in saline) is 5 of 6; the survivor count (T/C endpoint: median survival time, dose: 25.0 mg/kg/injection, schedule: Q01DX009 (ip), vehicle: Klucel (hydroxypropylcellulose) (HPC)) was 1 of 6; the survivor count (T/C endpoint: median survival time, dose: 25.0 mg/kg/injection, schedule: Q01DX009 (ip), vehicle: suspension in saline) was 0 of 6; the survivor count (T/C endpoint: median survival time, dose: 50.0 mg/kg/injection, schedule: Q01DX009 (ip), vehicle: suspension in saline) is 0 of 6. Further, the survivor count is given as 0 of 6 (T/C endpoint: median survival time, dose: 100.0 mg/kg/injection, schedule: Q01DX009 (ip), vehicle: suspension in saline) and 0 of 6 (T/C endpoint: median survival time, dose: 200.0 mg/kg/injection, schedule: Q01DX009 (ip), vehicle: suspension in saline).

`CCN(C(=O)CCl)C(C)(C)C(SSSC(c1ccc(Cl)cc1)C(C)(C)N(CC)C(=O)CCl)c1ccc(Cl)cc1` (centres undefined): the survivor count (T/C endpoint: mean survival time, dose: 200.0 mg/kg/injection, schedule: Q01DX009 (ip), vehicle: saline) is listed as 3 of 6.

In the case of `Cc1c(Cl)c(C)c(Cl)c(O)c1Cl` (tested in a mixture with another compound), the survivor count (T/C endpoint: mean survival time, dose: 200.0 mg/kg/injection, schedule: Q01DX005 (ip), vehicle: saline with Tween-80) is recorded as 0 of 3.

Consider `CSc1ncc(C(=O)O)c(SC(C)C)n1`, for which the survivor count (T/C endpoint: mean survival time, dose: 400.0 mg/kg/injection, schedule: Q01DX001 (ip), vehicle: saline with Tween-80) is 3 of 6.

Consider `c1cc2c(cc1NC1=NCCO1)CCC2`, for which the survivor count was 1 of 6 (T/C endpoint: mean survival time, dose: 100.0 mg/kg/injection, schedule: Q04DX003 (ip), vehicle: saline with Tween-80); 0 of 6 (T/C endpoint: mean survival time, dose: 200.0 mg/kg/injection, schedule: Q04DX003 (ip), vehicle: saline with Tween-80); 0 of 6 (T/C endpoint: mean survival time, dose: 400.0 mg/kg/injection, schedule: Q04DX003 (ip), vehicle: saline with Tween-80).

As to `NCCCC(N)C(=O)O` (centres undefined), the survivor count is 1 of 3 (T/C endpoint: median survival time, dose: 25.0 mg/kg/injection, schedule: Q04DX002 (ip), vehicle: saline); 0 of 3 (T/C endpoint: median survival time, dose: 100.0 mg/kg/injection, schedule: Q04DX002 (ip), vehicle: saline); 0 of 3 (T/C endpoint: median survival time, dose: 200.0 mg/kg/injection, schedule: Q04DX002 (ip), vehicle: saline); 0 of 3 (T/C endpoint: median survival time, dose: 400.0 mg/kg/injection, schedule: Q04DX002 (ip), vehicle: saline).

For `CCOC(=O)Nc1cc2c(c(N)n1)N=C(c1ccccc1)CN2`, the T/C runs as follows: (T/C endpoint: median survival time, dose: 1.25 mg/kg/injection, schedule: Q01DX009 (ip), vehicle: saline with Tween-80) 103, 112, 114, 136 % of control; (T/C endpoint: median survival time, dose: 2.5 mg/kg/injection, schedule: Q01DX009 (ip), vehicle: saline with Tween-80) 118, 130, 135, 154 % of control; under setting [2], 118, 136, 176 % of control. Besides, the survivor count is 5 of 6 under setting [2]; 0 of 6 and 1 of 6 (T/C endpoint: median survival time, dose: 10.0 mg/kg/injection, schedule: Q01DX009 (ip), vehicle: saline with Tween-80); 0 of 6 (T/C endpoint: median survival time, dose: 20.0 mg/kg/injection, schedule: Q01DX009 (ip), vehicle: saline with Tween-80).

Regarding `O=C(C[n+]1cc2ccccc2c2ccccc21)c1ccccc1`, the survivor count (T/C endpoint: mean survival time, dose: 400.0 mg/kg/injection, schedule: Q04DX003 (ip), vehicle: saline) is listed as 1 of 6.
